# Data as given in publication PMC10080908.
# These are yes or no findings as the source states them, for the method shown. Binding seen in cells or lysates may run through a third protein. For part of these data: Binding can be weak; no strength is given. Sequences can lack the tags named with a protein.
# How the values were obtained:
# Assay in all cases: co-IP; HEK-293 cells transiently transfected with HA-UBXN7-WT and the Flag-RNF111 constructs; lysates in IP150 buffer (150 mM NaCl, 20 mM Tris-HCl pH 7.5, 5 mM EDTA, 1% NP40, 10% glycerol) immunoprecipitated with Flag antibody and Protein G Sepharose overnight at 4 °C; western blot with HA and Flag antibodies
# [1] = biological target: Flag-RNF111 Δ671-756 (human)
# [2] = biological target: Flag-RNF111 Δ757-844 (human)
# [3] = biological target: Flag-RNF111 Δ845-868 (human)
# [4] = biological target: Flag-RNF111 Δ869-894 (human)
# [5] = biological target: Flag-RNF111 Δ895-932 (human)
# [6] = biological target: Flag-RNF111 Δ933-Cter (human)
binder,measurement,setting,value
"HA-UBXN7-WT (protein, UniProt O94888 1-489) MAAHGGSAASSALKGLIQQFTTITGASESVGKHMLEACNNNLEMAVTMFLDGGGIAEEPSTSSASVSTVRPHTEEEVRAPIPQKQEILVEPEPLFGAPKRRRPARSIFDGFRDFQTETIRQEQELRNGGAIDKKLTTLADLFRPPIDLMHKGSFETAKECGQMQNKWLMINIQNVQDFACQCLNRDVWSNEAVKNIIREHFIFWQVYHDSEEGQRYIQFYKLGDFPYVSILDPRTGQKLVEWHQLDVSSFLDQVTGFLGEHGQLDGLSSSPPKKCARSESLIDASEDSQLEAAIRASLQETHFDSTQTKQDSRSDEESESELFSGSEEFISVCGSDEEEEVENLAKSRKSPHKDLGHRKEENRRPLTEPPVRTDPGTATNHQGLPAVDSEILEMPPEKADGVVEGIDVNGPKAQLMLRYPDGKREQITLPEQAKLLALVKHVQSKGYPNERFELLTNFPRRKLSHLDYDITLQEAGLCPQETVFVQERN",binding,[1],binds
same,binding,[2],binds
same,binding,[3],binds
same,binding,[4],binds
same,binding,[5],binds weakly
same,binding,[6],no binding
